Data published in PubChem BioAssay AID493014 (National Center for Advancing Translational Sciences (NCATS), 2011).
This is one part of the list. These are further read-outs of the screen, such as a control signal, another cell line or another target. No call is given for them. Compounds called inactive in the main read-out are mostly missing here. The note in brackets gives the kind of curve behind each potency; many fits are weak.

Experiment: qHTS Assay to Find Inhibitors of Chronic Active B-Cell Receptor Signaling
Conditions: ABC-DLBCL IkBa-CBG/CBR reporter, luminescence ratio (green luciferase fused to IkBa over red control in TMD8 lymphoma cells), 4 h
Summary of the method: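 TMD8 ABC-DLBCL cells carrying doxycycline-inducible green luciferase fused to IkappaBalpha plus unfused red luciferase were exposed to compounds (up to 46 uM) for 4 hrs at 37C. Activity came from the overlap-corrected green/red luminescence ratio.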

[1] = measured here: CBR red luminescence, cell number
[2] = measured here: IkBa-CBG green luminescence

| Structure (SMILES) | AC50 [1] | AC50 [2] |
| --- | --- | --- |
| COc1ccc(-c2nn(Cc3ccccc3)cc2C(=O)NC2CC2)cc1OC | 2.91 µM [rising, full curve, poor fit] | – |
| CCC(Oc1cc(Cl)ccc1Cl)C(=O)N1CCC2(CC1)OCCO2 (configuration not stated) | 35.5 µM [falling, single point] | – |
| CNc1cc(Cl)c2nonc2c1[N+](=O)[O-] | 12.6 µM [falling, partial curve] | – |
| CN(C)C(=O)On1c(-c2ccccc2)nc2ccc(Cl)cc21 | 0.13 µM [falling, full curve, poor fit] | – |
| CCC(=Nc1ccc(OC)cc1OC)c1c(O)n(C2CCCCC2)c(=O)[nH]c1=O | 8.91 µM [falling, partial curve, poor fit] | – |
| N=C(N)c1c(O)n(C2CCCCC2)c(=O)n(C2CCCCC2)c1=O | 2.06 µM [rising, full curve, poor fit] | – |
| CC(C)(C)P(=O)(c1ccncc1)N1CCCC1 (configuration not stated) | 20.6 µM [falling, single point] | – |
| Cc1ccccc1C1=NCC(=O)N(CC(=O)NCc2ccco2)c2sc3c(c21)CCCC3 | 17.8 µM [falling, partial curve] | – |
| NC(Cc1ccccc1)Cc1ccccc1 | 3.98 µM [rising, single point] | – |
| COc1ccc(-n2c(/C=C/c3ccc(O)cc3)nc3ccccc3c2=O)cc1 | 15.8 µM [falling, single point] | – |
| COc1nc2ccccc2c(=O)n1-c1ccc(C)cc1 | 9.2 µM [rising, partial curve] | – |
| CCCCn1c(O)c(/C=N/NC(=O)c2ccncc2)c(=O)[nH]c1=O | 4.47 µM [falling, partial curve, poor fit] | – |
| O=c1[nH]c(=O)n(Cc2ccccc2Cl)c(O)c1C=Nc1ccc(F)cc1 | 28.2 µM [falling, single point] | – |
| COc1cc2c(c(OC)c1OC)-c1ccc(O)cc1[C@@H](NC(C)=O)CC2 | 0.58 µM [rising, full curve] | 0.461 µM [falling, full curve] |
| Oc1ccccc1-[n+]1c(-c2ccccc2)cc(-c2ccccc2)c(O)c1-c1ccccc1 | 18.4 µM [falling, single point] | – |
| C#CC(=O)N(c1cc(OC)ccc1OC)C(C(=O)NC1CCCC1)c1cccs1 (configuration not stated) | 11.2 µM [falling, partial curve] | – |
| Cc1cccc(-n2c(O)c(/C=C3/C(c4ccccc4)=Nc4ccccc43)c(=O)[nH]c2=O)c1 | 25.1 µM [falling, single point] | – |
| CCOP(=O)(OCC)c1nc(-c2cccc3ccccc23)oc1NCc1ccccc1 | 0.92 µM [rising, full curve, poor fit] | – |
| CC(=O)OC1(c2ccccc2)CCN(C)CC1(C)C (configuration not stated) | 7.94 µM [falling, partial curve] | – |
| Cc1c(N=Cc2c(O)n(Cc3ccc(F)cc3)c(=O)[nH]c2=O)c(=O)n(-c2ccccc2)n1C | 6.51 µM [rising, single point] | – |
| CC(=NCCc1c[nH]c2ccccc12)c1c(O)n(Cc2ccccc2)c(=O)[nH]c1=O | 17.8 µM [falling, partial curve] | – |
| Cc1ccc(N)c(N)c1 | 11.6 µM [falling, single point] | – |

In the list so far, 15 have nitrogen in an aromatic ring.

| Structure (SMILES) | AC50 [1] | AC50 [2] |
| --- | --- | --- |
| COc1ccc(-c2nn(Cc3ccccc3)cc2C(=O)NC2CC2)cc1OC | 2.91 µM [rising, full curve, poor fit] | – |
| CNc1cc(Cl)c2nonc2c1[N+](=O)[O-] | 12.6 µM [falling, partial curve] | – |
| CN(C)C(=O)On1c(-c2ccccc2)nc2ccc(Cl)cc21 | 0.13 µM [falling, full curve, poor fit] | – |
| CCC(=Nc1ccc(OC)cc1OC)c1c(O)n(C2CCCCC2)c(=O)[nH]c1=O | 8.91 µM [falling, partial curve, poor fit] | – |
| N=C(N)c1c(O)n(C2CCCCC2)c(=O)n(C2CCCCC2)c1=O | 2.06 µM [rising, full curve, poor fit] | – |
| CC(C)(C)P(=O)(c1ccncc1)N1CCCC1 (configuration not stated) | 20.6 µM [falling, single point] | – |
| COc1ccc(-n2c(/C=C/c3ccc(O)cc3)nc3ccccc3c2=O)cc1 | 15.8 µM [falling, single point] | – |
| COc1nc2ccccc2c(=O)n1-c1ccc(C)cc1 | 9.2 µM [rising, partial curve] | – |
| CCCCn1c(O)c(/C=N/NC(=O)c2ccncc2)c(=O)[nH]c1=O | 4.47 µM [falling, partial curve, poor fit] | – |
| O=c1[nH]c(=O)n(Cc2ccccc2Cl)c(O)c1C=Nc1ccc(F)cc1 | 28.2 µM [falling, single point] | – |
| Oc1ccccc1-[n+]1c(-c2ccccc2)cc(-c2ccccc2)c(O)c1-c1ccccc1 | 18.4 µM [falling, single point] | – |
| Cc1cccc(-n2c(O)c(/C=C3/C(c4ccccc4)=Nc4ccccc43)c(=O)[nH]c2=O)c1 | 25.1 µM [falling, single point] | – |
| CCOP(=O)(OCC)c1nc(-c2cccc3ccccc23)oc1NCc1ccccc1 | 0.92 µM [rising, full curve, poor fit] | – |
| Cc1c(N=Cc2c(O)n(Cc3ccc(F)cc3)c(=O)[nH]c2=O)c(=O)n(-c2ccccc2)n1C | 6.51 µM [rising, single point] | – |
| CC(=NCCc1c[nH]c2ccccc12)c1c(O)n(Cc2ccccc2)c(=O)[nH]c1=O | 17.8 µM [falling, partial curve] | – |

(continued)

| Structure (SMILES) | AC50 [1] | AC50 [2] |
| --- | --- | --- |
| Cc1ccc(-c2nc3ccccc3c(=O)n2-c2ccccn2)cc1 | 23.1 µM [rising, single point] | – |
| CCCCCc1cc(O)c2c3c(c(=O)oc2c1)CN(C)CC3 | 7.94 µM [rising, partial curve] | – |
| CCN(CC)c1ccc2c(-c3ccc(S(=O)(=O)O)cc3S(=O)(=O)[O-])c3ccc(=[N+](CC)CC)cc-3oc2c1 | 10 µM [rising, partial curve] | – |
| O=C(COC(=O)Cc1ccccc1)Nc1nnc(-c2ccccc2)o1 | 23.1 µM [falling, partial curve, poor fit] | – |
| Fc1ccc(NC2=NCCS2)cc1Cl | 25.9 µM [rising, single point] | – |
| CCCC1(CCC)C(=O)NC(=NCc2ccccc2)NC1=O | 35.5 µM [rising, single point] | – |
| Cc1noc(C)c1CSCC(=O)Nc1ccc(C#N)c(Cl)c1 | 29.1 µM [falling, single point] | – |
| CC(C)C[C@H](NC(=O)c1[nH]cnc1C(=O)N[C@H](C)c1ccccc1)C(=O)OC(C)(C)C | 17.8 µM [rising, partial curve, poor fit] | – |
| O=S(=O)(c1ccccc1)N1CCCCC1c1cccnc1 (configuration not stated) | 0.794 µM [falling, full curve] | – |
| COc1ccccc1OCCCn1cc(C=O)c2ccccc21 | 11.2 µM [rising, single point] | – |
| COc1cc(O)c(C(=O)O)c(-c2cc(O)c(O)cc2C)c1 | 25.1 µM [rising, single point] | – |
| CC1(C)CN=C(Nc2ccc(F)c(F)c2)S1 | 0.517 µM [rising, partial curve, poor fit] | – |
| CN1CCC(N(C)c2nc(-c3ccc([N+](=O)[O-])cc3)nc3ccccc23)CC1 | 23.1 µM [falling, single point] | – |
| CC(C)N1CCN(Cc2cc3c(cc2Cl)OCO3)CC1CCO (configuration not stated) | 10 µM [falling, partial curve] | – |
| CCCCn1c(O)c(C(CC)=NCc2ccc3c(c2)OCO3)c(=O)[nH]c1=O | 4.11 µM [falling, partial curve] | 23.1 µM [rising, partial curve, poor fit] |
| CCCC[N+]12CCC(CC1)C(C(O)(c1ccccc1)c1ccccc1)C2 (configuration not stated) | 10 µM [falling, partial curve, poor fit] | – |
| Oc1cc2c(cc1O)[C@H]1c3ccccc3CN[C@@H]1CC2 | 20 µM [falling, single point] | – |
| CN1C(=O)C(O)N=C(c2ccccc2)c2ccccc21 (configuration not stated) | 11.2 µM [rising, partial curve, poor fit] | – |
| OC(c1cccc(Cl)c1)(c1cccc(Cl)c1)C1CN2CCC1CC2 (configuration not stated) | 7.94 µM [falling, partial curve, poor fit] | – |
| COC(=O)C1=C(c2ccc(-c3ccccc3)c(F)c2)C[C@@H]2CC[C@H]1N2C(=O)N1CCCC1 | 29.1 µM [falling, single point] | – |
| COc1cc(/C=C(/C)[N+](=O)[O-])ccc1OCc1ccccc1Cl | 20.6 µM [falling, single point] | – |
| COc1cc(CN=C(C)c2c(O)n(C3CCCCC3)c(=O)[nH]c2=O)cc(OC)c1 | 3.98 µM [rising, full curve, poor fit] | – |

Another view of part of the listing above:
CN1C(=O)C(O)N=C(c2ccccc2)c2ccccc21 (configuration not stated)
  AC50 [1]: 11.2 µM [rising, partial curve, poor fit]
OC(c1cccc(Cl)c1)(c1cccc(Cl)c1)C1CN2CCC1CC2 (configuration not stated)
  AC50 [1]: 7.94 µM [falling, partial curve, poor fit]

Going on with the list.

| Structure (SMILES) | AC50 [1] | AC50 [2] |
| --- | --- | --- |
| Cc1ncc([N+](=O)[O-])n1CCOC(N)=O | 1.12 µM [rising, full curve, poor fit] | – |
| Cc1ccc(-c2nn(Cc3ccccc3)cc2C(=O)O)cc1 | 35.5 µM [rising, single point] | – |
| O=C(Cn1ncc2c3ccccc3n(Cc3cccc(Cl)c3)c2c1=O)N1CCC2(CC1)OCCO2 | 7.08 µM [falling, partial curve] | – |
| CNC(=O)O/N=C(\N)Cc1csc2ccccc12 | 0.891 µM [rising, full curve, poor fit] | – |
| Cc1ccccc1CN1CCCN(Cc2ccc(Cl)cc2)S1(=O)=O | 0.112 µM [rising, full curve, poor fit] | – |
| COc1ccc(C(=O)C2CCCN(Cc3ccon3)C2)c(OC)c1 (configuration not stated) | 12.6 µM [rising, single point] | – |
| CCOC(=O)C(=CNc1ccc(C(O)(C(=O)OCC)C(F)(F)F)cc1C)C(=O)OCC (configuration not stated) | 8.2 µM [falling, single point] | – |
| CCOC(=O)n1c(=O)oc2ccccc21 | 39.8 µM [falling, partial curve, poor fit] | – |
| O=C(CCCCCn1c(=S)[nH]c2ccccc2c1=O)N1CCC2(CC1)OCCO2 | 3.16 µM [falling, partial curve] | – |
| Cn1c(O)c(C=Nc2cccc(C(F)(F)F)c2)c(=O)n(C)c1=O | 35.5 µM [rising, single point] | – |
| Cc1[nH]c2ccc(OCc3ccccc3)cc2c1CCN | 11.2 µM [falling, partial curve, poor fit] | – |
| COC1=CC2C3Cc4ccc(OC)c(O)c4C2(CCN3C)CC1=O (configuration not stated) | 23.1 µM [falling, single point] | – |
| COc1ccc(CCn2c(O)c(C=Nc3ccccc3F)c(=O)[nH]c2=O)cc1OC | 3.55 µM [falling, partial curve, poor fit] | – |
| CC1CCCC(C)N1CC(O)COC1CCC(C(C)(C)C)CC1 (configuration not stated) | 25.1 µM [falling, single point] | – |
| CN1CCN(c2ccc(NC(=O)c3ccc([N+](=O)[O-])o3)cc2Cl)CC1 | 12.6 µM [falling, partial curve, poor fit] | – |
| N#Cc1cccc(NC(=O)c2sc3nc4c(cc3c2N)N2CCC4CC2)c1 | 1.12 µM [falling, full curve, poor fit] | – |
| CCc1c(C2(O)CCCCC2)[nH]c2ccc(C(F)(F)F)cc12 | 22.4 µM [falling, partial curve, poor fit] | – |
| O=C1CC(N2CC=C(c3ccccc3)CC2)C(=O)N1c1ccc(F)cc1 (configuration not stated) | 25.9 µM [falling, single point] | – |
| Oc1ccccc1/C=N/NP(=S)(c1ccccc1)c1ccccc1 | 15.8 µM [falling, single point] | – |
| CCNC(=O)NNC(=O)C1CC(c2cccnc2)=NO1 (configuration not stated) | 35.5 µM [rising, single point] | – |
| CN(C)C(=O)Oc1cc(=O)n2c3c(cccc13)CCC2 | 0.00411 µM [rising, full curve, poor fit] | – |
